Data: PMC1557399
No constants are given. Whether binding was seen depends on the method and setting. Some entries that bind do so weakly or less than the wild type.

Target: FimA, structural subunit of the type I fimbrial rod (E. coli K-12) (UniProt P04128)
Assay: AFM force spectroscopy; single type I fimbriae on bacteria immobilised on RNase B-coated glass, pulled through tip FimH by a 3M (RNase B)-coated AFM cantilever; constant-velocity and constant-force modes; room temperature

binding: binds
B1: FimA, structural subunit of the type I fimbrial rod (protein, UniProt P04128 24-182)
chain: AATTVNGGTVHFKGEVVNAACAVDAGSVDQTVQLGQVRTASLAQEGATSSAVGFNIQLNDCDTNVASKAAVAFLGTAIDAGHTNVLALQSSAAGSATNVGVQILDRTGAALTLDGATFSSETTLNNGTNTIPFQARYFATGAATPGAANADATFKVQYQ
